Measurements as given in patent EP4695300A2 (dated 2026).
No constants are given. Whether binding was seen depends on the method and setting. Binding seen in cells or lysates may run through a third protein. Some entries that bind do so weakly or less than the wild type. Sequences can lack the tags named with a protein.

The chains behind the UniProt entries cited, without tags or fusion partners.
UniProt P05556: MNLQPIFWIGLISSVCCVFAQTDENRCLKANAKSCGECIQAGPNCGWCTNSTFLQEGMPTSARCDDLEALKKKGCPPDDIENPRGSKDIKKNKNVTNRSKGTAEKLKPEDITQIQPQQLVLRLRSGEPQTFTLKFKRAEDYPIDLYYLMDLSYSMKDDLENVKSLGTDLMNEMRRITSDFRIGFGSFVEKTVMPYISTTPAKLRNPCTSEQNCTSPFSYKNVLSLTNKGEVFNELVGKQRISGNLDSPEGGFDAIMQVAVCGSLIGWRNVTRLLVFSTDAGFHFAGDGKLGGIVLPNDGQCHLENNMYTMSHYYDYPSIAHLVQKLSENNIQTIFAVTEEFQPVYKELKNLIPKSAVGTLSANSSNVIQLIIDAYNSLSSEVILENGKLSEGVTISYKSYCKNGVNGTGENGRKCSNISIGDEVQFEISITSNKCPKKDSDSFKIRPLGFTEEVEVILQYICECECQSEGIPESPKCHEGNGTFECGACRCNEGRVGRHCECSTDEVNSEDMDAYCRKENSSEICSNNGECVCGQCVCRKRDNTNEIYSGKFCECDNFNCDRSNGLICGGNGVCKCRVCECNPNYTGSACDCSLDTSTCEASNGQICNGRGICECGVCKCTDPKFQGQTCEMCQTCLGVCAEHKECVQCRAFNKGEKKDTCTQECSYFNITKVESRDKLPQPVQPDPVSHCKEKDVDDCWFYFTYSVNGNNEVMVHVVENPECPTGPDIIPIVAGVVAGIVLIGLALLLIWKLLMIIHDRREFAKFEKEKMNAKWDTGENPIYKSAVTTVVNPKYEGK

How the values were obtained:
Integrin β1 (human) [1] = target: Integrin β1 (human) (UniProt P05556); test: co-immunoprecipitation
Integrin β1 (human) [2] = target: Integrin β1 (human) (UniProt P05556); test: co-immunoprecipitation from Brij O10 lysate, Western blot
Integrin β1 (human) [3] = target: Integrin β1 (human) (UniProt P05556); test: co-immunoprecipitation after siRNA knockdown of E. Cadherin

Measured: binding

B1: Prostaglandin F2 Receptor Inhibitor (PTGFRN), expressed by cells (receptor, human, UniProt Q9P2B2 26-879, looked up)
chain: VPTATLVRVVGTELVIPCNVSDYDGPSEQNFDWSFSSLGSSFVELASTWEVGFPAQLYQERLQRGEILLRRTANDAVELHIKNVQPSDQGHYKCSTPSTDATVQGNYEDTVQVKVLADSLHVGPSARPPPSLSLREGEPFELRCTAASASPLHTHLALLWEVHRGPARRSVLALTHEGRFHPGLGYEQRYHSGDVRLDTVGSDAYRLSVSRALSADQGSYRCIVSEWIAEQGNWQEIQEKAVEVATVVIQPSVLRAAVPKNVSVAEGKELDLTCNITTDRADDVRPEVTWSFSRMPDSTLPGSRVLARLDRDSLVHSSPHVALSHVDARSYHLLVRDVSKENSGYYYCHVSLWAPGHNRSWHKVAEAVSSPAGVGVTWLEPDYQVYLNASKVPGFADDPTELACRVVDTKSGEANVRFTVSWYYRMNRRSDNVVTSELLAVMDGDWTLKYGERSKQRAQDGDFIFSKEHTDTFNFRIQRTTEEDRGNYYCVVSAWTKQRNNSWVKSKDVFSKPVNIFWALEDSVLVVKARQPKPFFAAGNTFEMTCKVSSKNIKSPRYSVLIMAEKPVGDLSSPNETKYIISLDQDSVVKLENWTDASRVDGVVLEKVQEDEFRYRMYQTQVSDAGLYRCMVTAWSPVRGSLWREAATSLSNPIEIDFQTSGPIFNASVHSDTPSVIRGDLIKLFCIITVEGAALDPDDMAFDVSWFAVHSFGLDKAPVLLSSLDRKGIVTTSRRDWKSDLSLERVSVLEFLLQVHGSEDQDFGNYYCSVTPWVKSPTGSWQKEAEIHSKPVFITVKMDVLNAFKYPLLIGVGLSTVIGLLSCLIGYCSSHWCCKKEVQETRRERRRLMSMEMD
binds: Integrin β1 (human) [1] | Integrin β1 (human) [2] | Integrin β1 (human) [3]
